{"source": "PubChem BioAssay AID1259405, NCATS, 2018", "test": "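Mouse-designed siRNAs used to find CHO productivity engineering targets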 (primary screen)", "cells": "Chinese hamster CHO-K1 ovary cells with stable secreted eGFP expression", "reagent": "single siRNA against mouse genes, 0.8 pmol siRNA per well (2 µl of 400 nM stock)", "time to read-out": "3 days", "read-out": "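Percent of the per-plate non-targeting control median for intracellular GFP per well by laser scanning cytometry and for cell viability by ATP luminescence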", "reading the numbers": "GFP, % of control: higher = more GFP per well, higher productivity; viability (ATP), % of control: higher = more viable cells (more ATP)", "hit rule": "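Called active when intracellular GFP, relative to negative control, is at or above 120%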", "note": "The deposit covers about 50,000 reagents; this is a random part of them. About 4,000 of them (8%) were called active. 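Mouse siRNA library applied to hamster cells; one well for each siRNA.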 A number with no mark means an inactive call. Reagents against one gene are numbered here. No sequences are given here."}
{"gene": "Fkbp10", "reagent": 1, "GFP, % of control": 82.9, "viability (ATP), % of control": 80.1}
{"gene": "Fkbp10", "reagent": 2, "GFP, % of control": 31.8, "viability (ATP), % of control": 31.9}
{"gene": "Fkbp10", "reagent": 3, "GFP, % of control": 74, "viability (ATP), % of control": 82.7}
{"gene": "Fndc3c1", "reagent": 1, "GFP, % of control": 81.8, "viability (ATP), % of control": 73}
{"gene": "Fndc3c1", "reagent": 2, "GFP, % of control": 63.3, "viability (ATP), % of control": 77.9}
{"gene": "Fndc3c1", "reagent": 3, "GFP, % of control": 66.4, "viability (ATP), % of control": 85.8}
{"gene": "Sdhb", "reagent": 1, "GFP, % of control": 79.7, "viability (ATP), % of control": 101}
{"gene": "Sdhb", "reagent": 2, "GFP, % of control": 31.2, "viability (ATP), % of control": 47.8}
{"gene": "Sdhb", "reagent": 3, "GFP, % of control": 85, "viability (ATP), % of control": 72}

Reprinted from above for reference:
{"gene": "Fndc3c1", "reagent": 2, "GFP, % of control": 63.3, "viability (ATP), % of control": 77.9}
{"gene": "Fndc3c1", "reagent": 3, "GFP, % of control": 66.4, "viability (ATP), % of control": 85.8}

More records:
{"gene": "Tmprss11b", "reagent": 1, "GFP, % of control": 77, "viability (ATP), % of control": 81}
{"gene": "Tmprss11b", "reagent": 2, "GFP, % of control": 81.5, "viability (ATP), % of control": 74.4}
{"gene": "Tmprss11b", "reagent": 3, "GFP, % of control": 71.7, "viability (ATP), % of control": 84.5}
{"gene": "Atf6b", "reagent": 1, "GFP, % of control": 63.8, "viability (ATP), % of control": 55.2}
{"gene": "Atf6b", "reagent": 2, "GFP, % of control": 99.6, "viability (ATP), % of control": 85.6}
{"gene": "Cald1", "reagent": 1, "GFP, % of control": 98.9, "viability (ATP), % of control": 91.4}
{"gene": "Cald1", "reagent": 2, "GFP, % of control": 69.4, "viability (ATP), % of control": 78.2}
{"gene": "Cald1", "reagent": 3, "GFP, % of control": 66.7, "viability (ATP), % of control": 84.6}
